# Values from PubChem BioAssay AID1053208 (Peter MacCallum Cancer Centre, 2014).
# Screen: 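Find knock-downs that sensitise mouse osteosarcoma cells to doxorubicin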 (primary screen)
# Cell system: mouse osteosarcoma cells, early-passage culture from an engineered mouse model of fibroblastic bone tumour
# Reagents: siRNA pool against mouse genes, 40 nM
# Time to read-out: about 120 h (48 h before drug, then 72 h with drug)
# Treatment: doxorubicin 100 nM for 72 h, roughly 30-40% inhibitory dose
# Read-out: 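Luminescent ATP signal taken as viability with or without 100 nM doxorubicin for 72 h; mean of two wells set against non-targeting siRNA and turned into robust z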
# Direction: viability z-score with doxorubicin and doxorubicin viability vs non-targeting: higher = more viable cells under doxorubicin; viability z-score without drug: higher = more viable cells with knock-down alone; z-score of drug to no-drug ratio: higher = less drug sensitisation by knock-down
# Active means: 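Called active if knock-down leaves viability unchanged without drug (z within -2 to 2) but lowers it with doxorubicin (z at or under -2)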
# Shown is one part, drawn at random, of about 17,000 deposited reagents. In the full data, 788 (4.7%) are marked active. 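Calls rest on z-score classes alone; an extra cut-off of viability at most 70% of control was not applied to them.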
target,combined z-score class,viability z-score with doxorubicin,viability z-score without drug,z-score of drug to no-drug ratio,doxorubicin viability vs non-targeting,Call
Inppl1,no change with or without drug,0.9,1.18,0.22,1.02,inactive
Or6d15,no change with or without drug,-0.67,0.34,-0.79,0.88,inactive
Ppp1r21,no change with or without drug,1.69,1.52,0.79,1.09,inactive
Gpr137,no change with or without drug,-1.46,-1.69,-0.34,0.81,inactive
Gabra3,no change with or without drug,0.11,-1.52,1.35,0.95,inactive
Spata18,high cell count without drug only,1.8,2.36,0.34,1.1,inactive
Pcdhgb6,no change with or without drug,-0.45,0.84,-0.9,0.9,inactive
Ccl27a,no change with or without drug,0.67,0,0.79,1,inactive
Or51f2,no change with or without drug,-0.9,-1.85,0.45,0.86,inactive
Plekhb2,no change with or without drug,0,-0.17,0.22,0.94,inactive
Wwox,no change with or without drug,-0.34,1.01,-0.9,0.91,inactive
Capn6,no change with or without drug,-1.35,-1.52,-0.34,0.82,inactive
Or9g4,no change with or without drug,-1.12,-0.34,-0.9,0.84,inactive
Zfp119b,no change with or without drug,-0.11,-0.84,0.56,0.93,inactive
Notch2,no change with or without drug,0.67,-1.18,1.8,1,inactive
Mgmt,no change with or without drug,-1.57,-1.18,-0.79,0.8,inactive
Apoa4,no change with or without drug,0.22,1.18,-0.45,0.96,inactive
Nars1,no change with or without drug,0.9,-0.51,1.46,1.02,inactive
Chrne,no change with or without drug,-1.8,-1.18,-1.01,0.78,inactive
Mboat1,no change with or without drug,0.67,0.67,0.34,1,inactive
Vash1,no change with or without drug,0.9,1.85,-0.22,1.02,inactive
Gucy1b2,no change with or without drug,0.45,0.17,0.45,0.98,inactive

No new results follow: an excerpt of the list.
target,combined z-score class,viability z-score with doxorubicin,viability z-score without drug,z-score of drug to no-drug ratio,doxorubicin viability vs non-targeting,Call
Capn6,no change with or without drug,-1.35,-1.52,-0.34,0.82,inactive
Or9g4,no change with or without drug,-1.12,-0.34,-0.9,0.84,inactive
Zfp119b,no change with or without drug,-0.11,-0.84,0.56,0.93,inactive
Notch2,no change with or without drug,0.67,-1.18,1.8,1,inactive
Mgmt,no change with or without drug,-1.57,-1.18,-0.79,0.8,inactive

The results go on.
target,combined z-score class,viability z-score with doxorubicin,viability z-score without drug,z-score of drug to no-drug ratio,doxorubicin viability vs non-targeting,Call
Yae1d1,no change with or without drug,0.11,1.18,-0.56,0.95,inactive
Mrnip,no change with or without drug,-0.45,-0.17,-0.22,0.9,inactive
Prr3,no change with or without drug,-1.46,0.17,-1.57,0.81,inactive
S1pr5,low cell count with and without drug,-2.7,-2.53,-1.24,0.7,inactive
Rce1,no change with or without drug,-0.34,0.34,-0.45,0.91,inactive
Gm4792,no change with or without drug,-0.11,1.01,-0.67,0.93,inactive
Ufd1,low cell count with doxorubicin only,-2.47,-1.85,-1.35,0.72,active
Zcchc14,no change with or without drug,0,-0.51,0.45,0.94,inactive
Hapln1,no change with or without drug,0.22,1.01,-0.34,0.96,inactive
Or5w8,no change with or without drug,-0.79,0.17,-0.79,0.87,inactive
Or5k15,low cell count with doxorubicin only,-2.02,-0.84,-1.57,0.76,active
Plekha4,no change with or without drug,-1.01,1.52,-1.8,0.85,inactive
